The source of these data is patent publication US6395523 (NEW ENGLAND BIOLABS, dated 2002).

Experiment in all cases: enzyme reaction in vitro
In one data set the test system is MlyI. As to conditions: Type IIs double-strand cleavage; pNB1 and pUC19; purified recombinant protein; only the motif is given.
In another data set the test system is N.BstNBI. As to conditions: purified recombinant protein, only the motif is given.
The subject of a further data set is AlwI. The settings on record: cuts both strands, linearizes pAC1; purified recombinant protein; only the motif is given.

Construct, isoform or probe ends are uncertain for at least one entry.

Take “GAGTC (double strand) [MlyI/N.BstNBI site in pNB1 / pUC19]”: the “activity on this sequence” value in the data set on MlyI and in the data set with N.BstNBI (nicking of pNB1) was “active” throughout.

On to “GGATC (double strand) [pAC1 (single AlwI site)]”, for which the “activity on this sequence” value is reported as “active” with AlwI and “active” with N.BstNBI (relaxed form produced, acts at its own GAGTC sites rather than GGATC).
